These are yes or no findings as the source states them, for the method shown. In cells and extracts the contact can be indirect. Some results given as binding are weak or reduced against the parent protein; the word gives no strength. One block for each molecule: values may come before it.
Legend:
[1] = target: T1, ZBTB24 (zinc finger- and BTB domain-containing 24), ectopically expressed (UniProt Q80X44); assay: co-IP; reciprocal co-IP of ectopically expressed proteins in HEK293 cells
T1 sequence: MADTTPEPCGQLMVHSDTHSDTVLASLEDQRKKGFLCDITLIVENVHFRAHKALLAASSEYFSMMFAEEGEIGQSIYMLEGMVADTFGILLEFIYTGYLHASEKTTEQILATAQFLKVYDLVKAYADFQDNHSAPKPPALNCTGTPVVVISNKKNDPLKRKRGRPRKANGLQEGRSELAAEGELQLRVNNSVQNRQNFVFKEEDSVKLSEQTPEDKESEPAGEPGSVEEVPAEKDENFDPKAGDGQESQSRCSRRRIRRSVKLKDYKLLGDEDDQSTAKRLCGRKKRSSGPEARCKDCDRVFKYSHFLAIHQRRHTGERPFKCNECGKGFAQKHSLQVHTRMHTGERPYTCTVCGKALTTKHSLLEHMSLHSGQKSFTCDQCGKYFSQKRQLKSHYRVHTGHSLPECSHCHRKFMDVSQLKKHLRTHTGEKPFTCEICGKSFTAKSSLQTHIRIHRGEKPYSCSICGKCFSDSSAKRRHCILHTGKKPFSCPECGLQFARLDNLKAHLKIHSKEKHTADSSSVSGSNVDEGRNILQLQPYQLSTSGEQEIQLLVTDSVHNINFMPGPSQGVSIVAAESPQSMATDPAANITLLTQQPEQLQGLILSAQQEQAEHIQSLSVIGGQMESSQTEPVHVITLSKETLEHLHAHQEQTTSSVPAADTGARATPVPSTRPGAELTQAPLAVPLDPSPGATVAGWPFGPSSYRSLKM

[2] = target: T2, ZBTB24, endogenous in mouse embryonic stem cells (mouse (endogenous in mESCs)) (UniProt Q80X44); assay: co-IP; reciprocal co-IP of endogenous proteins in mouse embryonic stem cells (mESCs)
T2 sequence: T1 sequence

[3] = target: T3, CDCA7 (cell division cycle associated 7) (UniProt Q9D0M2); assay: co-IP; co-IP of CDCA7 (wild type and ICF3 substitutions) with HELLS; no figure cited, cells and constructs not told
T3 sequence: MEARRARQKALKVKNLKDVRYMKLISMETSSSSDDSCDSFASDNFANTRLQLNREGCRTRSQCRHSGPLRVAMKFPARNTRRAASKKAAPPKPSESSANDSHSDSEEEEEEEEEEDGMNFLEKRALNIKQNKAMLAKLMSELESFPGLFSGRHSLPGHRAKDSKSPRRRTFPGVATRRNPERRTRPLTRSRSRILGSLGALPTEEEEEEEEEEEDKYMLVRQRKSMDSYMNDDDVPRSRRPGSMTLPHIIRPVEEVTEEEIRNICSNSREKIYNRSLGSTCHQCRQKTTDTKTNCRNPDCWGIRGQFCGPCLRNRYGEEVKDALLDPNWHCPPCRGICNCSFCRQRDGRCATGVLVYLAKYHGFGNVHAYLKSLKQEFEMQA

- binding [1]: no binding
Molecule: DNMT3B (DNA methyltransferase 3B), ectopically expressed (from UniProt O88509 1-859) (enzyme)

- binding [2]: no binding
Molecule: DNMT3B, endogenous in mouse embryonic stem cells (from UniProt O88509 1-859) (enzyme)

- binding [3]: binds
B1: HELLS (helicase, lymphoid-specific) (enzyme, UniProt Q60848 1-821)
chain: MAEQTEPAVITPAMLEEEEQLEAAGLEKERKMLEEAQKSWDRESTEIRYRRLQHLLEKSNIYSKFLLTKMEQQQLEEQKKKEKLEKKKRSLKLTEGKSLVDGNGEKPVMKKKRGREDESYNISEVMSKEEILSVAKKHKDNEDESSSTTSLCVEDIQKNKDSNSMIKDRLSQTVRQNSKFFFDPVRKCNGQPVPFQQPKHFTGGVMRWYQVEGMEWLRMLWENGINGILADEMGLGKTVQCIATIALMIQRGVPGPFLVCGPLSTLPNWMAEFKRFTPEIPTLLYHGTREDRRKLVKNIHKRQGTLQIHPVVVTSFEIAMRDQNALQHCYWKYLIVDEGHRIKNMKCRLIRELKRFNADNKLLLTGTPLQNNLSELWSLLNFLLPDVFDDLKSFESWFDITSLSETAEDIIAKEREQNVLHMLHQILTPFLLRRLKSDVALEVPPKREVVVYAPLCNKQEIFYTAIVNRTIANMFGSCEKETVELSPTGRPKRRSRKSINYSELDQFPSELEKLISQIQPEVNRERTVVEGNIPIESEVNLKLRNIMMLLRKCCNHPYMIEYPIDPVTQEFKIDEELVTNSGKFLILDRMLPELKKRGHKVLVFSQMTSMLDILMDYCHLRNFIFSRLDGSMSYSEREKNIYSFNTDPDVFLFLVSTRAGGLGINLTAADTVIIYDSDWNPQSDLQAQDRCHRIGQTKPVVVYRLVTANTIDQKIVERAAAKRKLEKLIIHKNHFKGGQSGLSQSKNFLDAKELMELLKSRDYEREVKGSREKVISDEDLELLLDRSDLIDQMKASRPIKGKTGIFKILENSEDSSAECLF
